Data on 39 compounds can be found in PubChem BioAssay AID2685 (National Center for Advancing Translational Sciences (NCATS), 2010).

The other results are listed elsewhere or left out. Further columns of the screen follow, without active or inactive calls. Most of these compounds were active or inconclusive in the main read-out, so they are no random draw. Potencies come from curve fits of mixed quality, noted in brackets.

The nature of this experiment: qHTS Assay for Lipid Storage Modulators in Drosophila S3 Cells.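 As to cell number change: cells counted by Cell Tracker Red CMTPX staining in the red channel.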 As to conditions: BODIPY lipid droplet fluorescence, 18-24 h; for cell number change: measured here: cell count max response, cells fed with added oleic acid. A digest of the protocol:
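Laser-scanning cytometry quantifies lipid droplet accumulation (500–530 nm total intensity; droplet/cell object ratio) in oleic acid-fed (400 uM added) Drosophila S3 cells treated with a concentration series. 20 uM Triacsin C defined 100% inhibition.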

Setting [1] is: measured here: cell number channel AC50, cells fed with added oleic acid.
Setting [2] is: measured here: lipid fluorescence (Fed channel) AC50, cells fed with added oleic acid.

On to `Nc1c(Cl)cc(-c2cn(CCC(=O)O)c(-c3ccncc3)n2)cc1Cl`, for which the cell number change was found to be 14.7%.

With `COC(=O)c1ccc(NS(=O)(=O)c2ccc(Cl)cc2)o1`, the cell number change was -36.9%. Under setting [1], the AC50 was 23.1 µM [falling, single point]. The half-maximal activity concentration (AC50) under setting [2] is 29.1 µM [falling, single point].

For `COc1cc(OC)c(OC)cc1CNc1cc(C)ccc1OC`, the cell number change was -19.9%.

`Cc1cc(-c2ccc(F)cc2)nc2cc(C(N)=O)nn12`: the cell number change was 11.2%. For the same compound, under setting [2], the AC50 is 6.51 µM [rising, single point].

Consider `CCCCOC(=O)Nc1ccc(S(=O)(=O)Nn2cnnc2)cc1`, for which the cell number change amounted to 7.5%. Further, the AC50 under setting [2] is 23.1 µM [falling, single point].

`CC(C)C(=O)N1N=C2CCCCC2C1(O)C(F)(F)F` (stereo not given): the cell number change came to 24.4%. Besides, the AC50 under setting [2] was 6.51 µM [rising, single point].

As for `COc1ccc(S(=O)(=O)N(CC(=O)NCC2CCCO2)C2CCCCC2)cc1OC` (stereo not given), the cell number change is -5.26%.

In the case of `CN1CCCN(Cc2ccc(Cl)cc2Cl)CC1`, the cell number change is -11%. In addition, the AC50 under setting [1] was 0.461 µM [falling, full curve, poor fit].

`Cc1ccc(S(=O)(=O)c2nnn3c2nc(NC2CCN(Cc4ccccc4)CC2)c2ccccc23)cc1C`: the cell number change turned out to be 32.3%. The AC50 under setting [1] is 0.0291 µM [rising, partial curve].

For `O=C(CCCn1c(=S)[nH]c2ccccc2c1=O)NCc1ccco1`, the cell number change is -11.4%.

Regarding `C=CCNC(=O)[C@H]1N2C(=O)c3ccccc3C2SC1(C)C` (stereo not given in full), the cell number change is 79.6%. Further, the AC50 under setting [1] was 20.6 µM [rising, single point]. The AC50 under setting [2] was 0.58 µM [falling, single point].

Turning to `COc1cccc(-n2cc(CNC(=O)C3CCC(=O)N(C4CC4)C3)cn2)c1` (stereo not given), the cell number change was determined as 1.15%.

For `COc1ccc(Cl)cc1NC(=S)NCc1cccs1`, the cell number change turned out to be 119%. Besides, the AC50 under setting [1] was 29.1 µM [rising, single point]. In addition, the AC50 under setting [2] is 29.1 µM [rising, single point].

On to `CCOC(=O)N1CCN(CC(=O)NC(=O)Nc2ccc3c(c2)OCCO3)CC1`, for which the cell number change was -49.9%. Moreover, the half-maximal activity concentration (AC50) under setting [1] was 20.6 µM [falling, partial curve]. For the same compound, the half-maximal activity concentration (AC50) under setting [2] was 29.1 µM [falling, single point].

Turning to `O=C(NC1CCN(Cc2ccccc2)CC1)c1cccc(OC(F)F)c1`, the cell number change is 10.9%. In addition, the half-maximal activity concentration (AC50) under setting [2] was 0.82 µM [rising, full curve, poor fit].

With `CCOc1ccccc1NC(=O)/C(C#N)=C/c1c(C)nn(-c2ccc(F)cc2)c1Cl`, the cell number change was determined as 0.235%. Also, the concentration at half-maximal activity (AC50) under setting [2] was 20.6 µM [rising, single point].

Turning to `Cc1cc(CCCCCCCCc2cc(C)cc(=O)o2)oc(=O)c1`, the cell number change came to 52.8%. Further, the concentration at half-maximal activity (AC50) under setting [1] is 10.3 µM [rising, partial curve]. For the same compound, the half-maximal activity concentration (AC50) under setting [2] is 32.6 µM [falling, partial curve, poor fit].

Take `CCc1ccc(NC(=S)N2CCNC(=O)C2CC(=O)OC)cc1` (stereo not given): the cell number change was found to be 1.02%. Further, the AC50 under setting [2] was 0.651 µM [falling, full curve, poor fit].

Turning to `COC(=O)N(C)c1ccccc1C(=O)N1CCOCC1`, the cell number change amounted to 17.4%. Further, the AC50 under setting [1] is 0.291 µM [rising, partial curve, poor fit]. Further, under setting [2], the concentration at half-maximal activity (AC50) was 29.1 µM [falling, single point].

In the case of `COc1ccc(NC(=O)COc2coc(CN3CCN(c4ccccc4)CC3)cc2=O)cc1`, the cell number change is -0.321%.

As for `O=C(NCCc1c[nH]c2ccccc12)C(F)(F)F`, the cell number change is -20%. For the same compound, under setting [1], the AC50 is 0.517 µM [falling, full curve, poor fit].

As to `CCc1ccccc1NC(=O)Cn1ccn(-c2ccc(OC)cc2)c(=O)c1=O`, the cell number change was -8.9%. Under setting [2], the AC50 was 2.06 µM [rising, full curve].

Turning to `CC(C)N(Cc1nc(-c2ccc(Cl)cc2)no1)C(=O)CN(C)S(=O)(=O)c1ccc(Cl)cc1`, the cell number change stood at 1.08%.

Regarding `Cc1noc(C)c1S(=O)(=O)N1CCC(C(=O)NCCc2ccc(S(N)(=O)=O)cc2)CC1`, the cell number change was -46.5%. Moreover, the concentration at half-maximal activity (AC50) under setting [1] was 10.3 µM [falling, partial curve]. For the same compound, the AC50 under setting [2] is 23.1 µM [falling, partial curve].

As for `O=[N+]([O-])c1cccc(-c2nc(-c3ccccn3)no2)c1`, the cell number change turned out to be 5.44%. Under setting [2], the AC50 is 14.6 µM [rising, single point].

For the compound `CCCn1c2ccc(F)cc2c2nnc(NN)nc21`, the cell number change is 98.1%. In addition, under setting [2], the AC50 was 20.6 µM [rising, partial curve].

With `CCn1ncc([N+](=O)[O-])c1C(=O)Nc1cc(C)on1`, the cell number change worked out at 73.8%. Also, the AC50 under setting [1] was 20.6 µM [rising, single point].

`CC(=O)c1c(C)c2c(n1CCN(C)C)CCCC2`: the cell number change was determined as 42.9%. For the same compound, under setting [1], the concentration at half-maximal activity (AC50) was 29.1 µM [rising, single point]. Further, the AC50 under setting [2] is 0.651 µM [falling, single point].

Consider `O=C(/C=C/c1ccc(Cl)c(C(F)(F)F)c1)N1CCN(c2ccccn2)CC1`, for which the cell number change was 6.25%. For the same compound, the AC50 under setting [2] was 0.731 µM [rising, full curve].

For the compound `O=C(CCc1nc2ccccc2[nH]1)Nc1ccccc1`, the cell number change was found to be 11%. For the same compound, under setting [2], the AC50 is 4.11 µM [rising, single point].

On to `CCCCCCCCCCCCCCCC[n+]1cccc2ccccc21`, for which the cell number change was -65.2%. Further, the AC50 under setting [1] was 2.59 µM [falling, full curve]. The AC50 under setting [2] is 1.3 µM [falling, full curve].

Regarding `CC(=O)c1ccc2oc3ccccc3c(=O)c2c1`, the cell number change came out at 7.19%. For the same compound, under setting [2], the AC50 is 29.1 µM [falling, single point].

Consider `CC(C)Oc1snc(Cl)c1C(N)=O`, for which the cell number change was -11.4%. The AC50 under setting [1] is 0.00461 µM [falling, full curve, poor fit]. In addition, under setting [2], the concentration at half-maximal activity (AC50) is 29.1 µM [falling, partial curve].

With `CC1CN(C(c2ccco2)c2sc3ncnn3c2O)CC(C)O1` (stereo not given), the cell number change turned out to be 10.9%.

On to `O=C(/C=C/c1ccc(Cl)cc1Cl)Nc1ccncc1`, for which the cell number change was -33.2%. The AC50 under setting [1] was 0.103 µM [rising, full curve, poor fit]. Also, the AC50 under setting [2] was 3.66 µM [rising, single point].

In the case of `COc1ccc(C)cc1NC(=O)CSc1nnc(-c2cc(C)[nH]n2)n1N`, the cell number change worked out at 11.3%. The half-maximal activity concentration (AC50) under setting [2] is 29.1 µM [rising, single point].

Take `CS(=O)(=O)N(CC(=O)Nc1ccc(S(=O)(=O)N2CCOCC2)cc1)c1cccc(F)c1`: the cell number change was -0.119%. Also, under setting [2], the concentration at half-maximal activity (AC50) was 1.64 µM [falling, partial curve, poor fit].

Turning to `O=C(c1ccc(Br)o1)N1CCN(Cc2ccc3c(c2)OCO3)CC1`, the cell number change was -13.8%. Besides, the AC50 under setting [2] is 4.11 µM [rising, single point].

Regarding `COc1ccc(-c2oc3ncn(Cc4ccco4)c(=N)c3c2-c2ccc(OC)cc2)cc1`, the cell number change came to 2.05%.
